The other results are listed elsewhere or left out. These are further read-outs of the screen, such as a control signal, another cell line or another target. No call is given for them. Most of these compounds were active or inconclusive in the main read-out, so they are no random draw. Potencies come from curve fits of mixed quality, noted in brackets.
Experiment: Cell signaling CRE-BLA (Fsk stim)
Settings: CHO CRE-bla reporter (cAMP response element driving beta-lactamase), forskolin EC10, beta-lactamase ratio; measured here: 460 nm blue channel
Procedure, shortened: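 Cells were plated overnight at 37 °C, exposed to compound titrations plus EC10 NKH 477 for 3 h, then given CCF4 dye for 2 h at room temperature. Blue/green (460/530 nm) ratio was converted to %Activity and AC50 values calculated.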

Structure (SMILES)	AC50
COc1cccc(Cn2c(=O)c(-c3ccccc3)nc3cncnc32)c1	15.8 µM [rising, partial curve]
O=C(O)CCC(=O)NC1CCCCC1NC(=O)CCC(=O)O (stereo unspecified)	0.316 µM [falling, full curve]
Oc1[nH]c2ccccc2c1C1=NCCCC1	25.1 µM [rising, single point]
Cc1cnc(CNc2nc(-c3ccc(N(C)C)cc3)nc3ccccc23)cn1	12.6 µM [rising, partial curve]
COc1cccc2[nH]c3c(N4CCCC(C)C4)ncnc3c12 (stereo unspecified)	20 µM [rising, single point]
O=C(OCn1nnc2ccccc2c1=O)c1cccs1	0.00316 µM [falling, full curve, poor fit]
CCc1nc2ccccc2n(CCOCCOCCn2c(=O)c(CC)nc3ccccc32)c1=O	5.01 µM [rising, full curve]
O=C(Oc1ccc2c(c1)OCO2)c1cccs1	5.01 µM [falling, single point]
CCCCCCN1Cc2ccccc2C1	25.1 µM [rising, single point]
COc1cccc(Cn2c(=O)cnc3cnc(N4CCN(C)CC4)nc32)c1	20 µM [rising, single point]
COC(=O)[C@@]1(Cc2ccc(F)cc2)[C@H]2c3cc(C(=O)N(C)C)n(Cc4ccc(OC(F)(F)F)cc4)c3C[C@H]2CN1C(=O)c1ccccc1	5.01 µM [falling, single point]
CC(=O)O[C@H]1C(=O)[C@]2(C)[C@H]([C@H](OC(=O)c3ccccc3)[C@@]3(O)C[C@H](OC(=O)[C@@H](O)[C@@H](NC(=O)c4ccccc4)c4ccccc4)C(C)=C1C3(C)C)[C@]1(OC(C)=O)CO[C@@H]1C[C@@H]2O	31.6 µM [falling, single point]
CN(C)c1nc(N)nc(CSc2n[nH]c(-c3ccccc3)n2)n1	3.98 µM [rising, partial curve]
CCOC(=O)c1oc2ccccc2c1NC(=O)c1ccccc1OC	2.51 µM [rising, partial curve]
CC1Cc2ccccc2N1S(=O)(=O)c1ccc2c(c1)n(C)c(=O)c(=O)n2C (stereo unspecified)	1.26 µM [falling, single point]
Cc1ccc(CNC(=O)Nc2ccccc2)cc1	0.00794 µM [falling, full curve, poor fit]
CC(=O)c1ccc(Nc2cc(C)nc3nc(C)nn23)cc1	12.6 µM [rising, partial curve]
Cc1ccccc1Cn1c(-c2cncs2)nc2ccccc21	5.01 µM [rising, partial curve]
CCOC(=O)c1[nH]c(=O)[nH]c1CSc1nc(C)cc(C)n1	1 µM [falling, full curve, poor fit]
COC(=O)C1=C(N)N(c2ccc(F)cc2)C2=C(C(=O)CCC2)C1c1ccc2c(c1)OCO2 (stereo unspecified)	12.6 µM [rising, single point]
O=C(COc1ccc2ccccc2c1CN1CCOCC1)N1CCc2ccccc21	0.0794 µM [falling, full curve, poor fit]

An excerpt of these results, as labelled records:
Oc1[nH]c2ccccc2c1C1=NCCCC1
  AC50: 25.1 µM [rising, single point]
CCc1nc2ccccc2n(CCOCCOCCn2c(=O)c(CC)nc3ccccc32)c1=O
  AC50: 5.01 µM [rising, full curve]

The results go on:

Structure (SMILES)	AC50
CCCC(c1nnnn1C(C)(C)CC)N(Cc1ccco1)Cc1cc2ccc(OC)cc2[nH]c1=O (stereo unspecified)	10 µM [rising, single point]
CN(CC(=O)Nc1ccc(Cl)cc1)S(=O)(=O)c1cccc2cccnc12	10 µM [falling, single point]
CCOc1ccccc1C(=O)NCC(=O)OCC(=O)N1C(C)CCCC1C (stereo unspecified)	12.6 µM [rising, partial curve]
CCNc1ncc2nc(CCc3ccccc3)c(=O)n(Cc3ccc(F)cc3)c2n1	2.51 µM [rising, partial curve]
O=C1c2c(O)ccc([N+](=O)[O-])c2C(=O)c2c([N+](=O)[O-])ccc(O)c21	25.1 µM [falling, partial curve]
Cc1oc2nc(SCCCC(=O)NCCO)nc(N)c2c1C	0.0501 µM [rising, full curve, poor fit]
O=C(CCC(=O)N1CCc2ccccc2C1)N1CCN(S(=O)(=O)c2ccccc2)CC1	3.16 µM [falling, partial curve]
c1ccc(CN2CCN(c3nc(-c4ccccc4)nc(-n4ccnc4)n3)CC2)cc1	2.51 µM [rising, full curve, poor fit]
O=C(Cc1c[nH]c2ccccc12)NCc1ccc2c(c1)OCO2	7.94 µM [falling, partial curve]
CCC(=O)N1CCc2cc(Br)cc(S(=O)(=O)C3(C(=O)OC)CC3)c21	25.1 µM [rising, single point]
Cc1nnc(SCC(=O)N2CCC(c3noc4ccc(F)cc34)CC2)s1	3.98 µM [falling, partial curve]
CCN1C(=O)c2cccc3c(S(=O)(=O)Nc4ncccc4C)ccc1c23	10 µM [rising, partial curve]
COC(=O)C[C@](O)(CCCC(C)(C)O)C(=O)O[C@@H]1C(OC)=C[C@]23CCCN2CCc2cc4c(cc2[C@H]13)OCO4	1 µM [falling, full curve]
COC(=O)c1oc2nc(C)cc(C)c2c1N	25.1 µM [rising, single point]
COc1ccc(N2CCN(Cc3nc4c(c(=O)[nH]c(=O)n4C)n3CCCc3ccccc3)CC2)cc1	10 µM [rising, partial curve]
COc1ccc(C2CC(c3cc(Br)ccc3F)n3nnnc3N2)cc1 (stereo unspecified)	15.8 µM [rising, single point]
CCOc1ccc2nc(NC(=O)C(NS(=O)(=O)c3cccs3)C(C)C)sc2c1 (stereo unspecified)	10 µM [rising, partial curve]
O=C(COC(=O)c1ccccc1Oc1ccccc1)NC1CCS(=O)(=O)C1 (stereo unspecified)	1.26 µM [falling, full curve]
Cc1ccccc1OCCC(=O)Nc1c(C)n(C)n(-c2ccccc2)c1=O	0.00316 µM [falling, full curve, poor fit]
COc1ccc(C2/C(=C(/O)c3ccccc3)C(=O)C(=O)N2CCN2CCOCC2)c(OC)c1 (stereo unspecified)	3.98 µM [falling, single point]

Of the compounds above, 2 have two or more sulfur atoms.
Structure (SMILES)	AC50
Cc1nnc(SCC(=O)N2CCC(c3noc4ccc(F)cc34)CC2)s1	3.98 µM [falling, partial curve]
CCOc1ccc2nc(NC(=O)C(NS(=O)(=O)c3cccs3)C(C)C)sc2c1 (stereo unspecified)	10 µM [rising, partial curve]
